Measurements reported in PubChem BioAssay AID1259254 (NCATS, 2017)

Purpose: 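Finding genes that stop cells copying their DNA twice in one cycle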 (primary screen)
Cell system: human HCT116 colorectal cancer cells
Knock-down reagent: single siRNA against human genes
Duration: 3 days
Detection: 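Imaged Hoechst DNA stain sorts each cell into a cycle phase by DNA amount; per plate, G2 fraction set to 0% for non-targeting and 100% for GMNN siRNA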
Direction: G2 robust z-score: higher = more G2 cells, more excess DNA replication
Call rule: 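Active siRNAs have a G2 robust z of 5 or more median absolute deviations over the median, which in these data means about 38% or higher of GMNN control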
Shown is one part, drawn at random, of about 59,000 deposited reagents. About 1,550 of all reagents (2.6%) were called active. 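G2 share is only a proxy for re-replication; each gene was hit by three separate siRNAs, and active genes were retested.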 Reagents against one gene are numbered here. Not all columns of the deposit are shown. The record does not give: the amount of reagent.

G2 robust z-score, by target and reagent
RTP1 (receptor transporter protein 1): #1 -1.11 inactive; #2 -0.83 inactive; #3 2.02 inactive
DIS3L (DIS3 like exosome 3'-5' exoribonuclease): #1 0.302 inactive; #2 0.191 inactive; #3 -0.348 inactive
VTI1B (vesicle transport through interaction with t-SNAREs 1B): #1 -0.461 inactive; #2 -0.745 inactive; #3 -0.445 inactive
SUGT1P4-STRA6LP-CCDC180 (SUGT1P4-STRA6LP-CCDC180 readthrough): #1 -0.76 inactive; #2 0.143 inactive; #3 7.85 active
KRTAP1-3 (keratin associated protein 1-3): #1 -0.199 inactive; #2 1.87 inactive; #3 -0.801 inactive
CDC50B (cell division cycle 50 P4-ATPase accessory subunit B): #1 1.35 inactive; #2 0.969 inactive; #3 0.0295 inactive
ZNF43 (zinc finger protein 43): #1 -0.646 inactive; #2 -1.85 inactive; #3 0.965 inactive
PRR3 (proline rich 3): #1 -0.474 inactive; #2 1.3 inactive; #3 1.24 inactive
AKIRIN1 (akirin 1): #1 -0.656 inactive; #2 0.248 inactive; #3 1.33 inactive
H3C6 (H3 clustered histone 6): #1 3.54 inactive; #2 0.538 inactive; #3 5.36 active

Laid out differently: entries from further up.
target	reagent	G2 robust z-score	outcome
DIS3L (DIS3 like exosome 3'-5' exoribonuclease)	2	0.191	inactive
DIS3L (DIS3 like exosome 3'-5' exoribonuclease)	3	-0.348	inactive
VTI1B (vesicle transport through interaction with t-SNAREs 1B)	1	-0.461	inactive
VTI1B (vesicle transport through interaction with t-SNAREs 1B)	2	-0.745	inactive
VTI1B (vesicle transport through interaction with t-SNAREs 1B)	3	-0.445	inactive
SUGT1P4-STRA6LP-CCDC180 (SUGT1P4-STRA6LP-CCDC180 readthrough)	1	-0.76	inactive
SUGT1P4-STRA6LP-CCDC180 (SUGT1P4-STRA6LP-CCDC180 readthrough)	2	0.143	inactive
SUGT1P4-STRA6LP-CCDC180 (SUGT1P4-STRA6LP-CCDC180 readthrough)	3	7.85	active
KRTAP1-3 (keratin associated protein 1-3)	1	-0.199	inactive
KRTAP1-3 (keratin associated protein 1-3)	2	1.87	inactive
KRTAP1-3 (keratin associated protein 1-3)	3	-0.801	inactive
CDC50B (cell division cycle 50 P4-ATPase accessory subunit B)	1	1.35	inactive

The list goes on.
G2 robust z-score, by target and reagent
LIPG (lipase G, endothelial type): #1 0.578 inactive; #2 0.155 inactive; #3 7.64 active
CBX1 (chromobox 1): #1 -0.294 inactive; #2 0.856 inactive; #3 -1.21 inactive
IQCH (IQ motif containing H): #1 -0.31 inactive; #2 -0.764 inactive; #3 0.881 inactive
CLDN19 (claudin 19): #1 -0.483 inactive; #2 -0.461 inactive; #3 -0.448 inactive
LIPH (lipase H): #1 -0.335 inactive; #2 -0.277 inactive; #3 1.33 inactive
CXCL13 (C-X-C motif chemokine ligand 13): #1 0.126 inactive; #2 -0.272 inactive; #3 -0.55 inactive
SPATA18 (spermatogenesis associated 18): #1 -0.69 inactive; #2 2.7 inactive; #3 -0.786 inactive
RANBP6 (RAN binding protein 6): #1 0.62 inactive; #2 -1.34 inactive; #3 -0.256 inactive
GGCT (gamma-glutamylcyclotransferase): #1 1.01 inactive; #2 -0.174 inactive; #3 -0.863 inactive
EHHADH (enoyl-CoA hydratase and 3-hydroxyacyl CoA dehydrogenase): #1 -0.703 inactive; #2 -0.292 inactive; #3 -0.712 inactive
LINC01750 (long independently transcribed non-coding RNA 1750): #1 -0.548 inactive; #2 0.758 inactive; #3 -0.325 inactive
FBXO9 (F-box protein 9): #1 3.78 inactive; #2 0.746 inactive; #3 0.108 inactive
ADGRL3 (adhesion G protein-coupled receptor L3): #1 1.11 inactive; #2 0.766 inactive; #3 -0.91 inactive
OR14I1 (olfactory receptor family 14 subfamily I member 1): #1 -1.06 inactive; #2 -0.314 inactive; #3 0.0127 inactive
YWHAB: #1 -0.585 inactive; #2 7.77 active; #3 -0.644 inactive
QTGAL (queuosine-tRNA galactosyltransferase): #1 0.837 inactive; #2 1.38 inactive; #3 -0.0282 inactive
CNTF (ciliary neurotrophic factor): #1 2.85 inactive; #2 -1.21 inactive; #3 1.3 inactive
H1-2 (H1.2 linker histone, cluster member): #1 3.11 inactive; #2 1.24 inactive; #3 0.464 inactive
KLHL26 (kelch like family member 26): #1 5.06 active; #2 0.0293 inactive; #3 -1.06 inactive
